# PubChem BioAssay AID504764 – Drosophila RNAi Screening Center | 2011
# Purpose: 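Genome-wide screen for regulators of Notch-driven gene expression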 (primary screen)
# Cells: Drosophila Kc167 cells
# Reagents: long dsRNA against Drosophila genes
# Timing: about 5 days (4 days dsRNA, then 24 h after transfection)
# Conditions: transfection of constitutively active membrane-tethered Notch lacking the extracellular domain, read 24 h later
# Read-out: 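Light from a Notch-responsive E(spl)m3 luciferase reporter under active Notch, with control-promoter and no-Notch reporter wells to normalise; raw counts from paired wells a and b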
# Direction: induced reporter light, run 1, well a and induced reporter light, run 1, well b: higher = more light from the Notch target reporter with active Notch; control promoter light, run 1, well a and control promoter light, run 1, well b: higher = more light from the viral control promoter (cell number, transfection, viability); uninduced reporter light, run 1, well a: higher = more light from the Notch target reporter without active Notch
# Call rule: 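Wells with low control signal or poorly matching duplicates excluded; duplicates averaged; per source plate, z beyond ±2 for induced/control log2 ratio or beyond ±1.8 for induced/uninduced marks a hit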
# Calls: active = modifier hit (raised or lowered Notch signal); inactive = not a hit
# In all, the deposit lists about 22,000 reagents; this is an unselected part of those that have a named target and a result. In the full data, 403 (1.9%) were called active. 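Unnormalised raw counts per well; ratio z-scores behind the hit calls and whether each hit raises or lowers signal are not deposited.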 Reagent sequences are not shown. Not given: the amount of reagent.
The first 4 entries as a preview:
target,DRSC id,"induced reporter light, run 1, well a","induced reporter light, run 1, well b","control promoter light, run 1, well a","control promoter light, run 1, well b","uninduced reporter light, run 1, well a",activity call
CG13443,DRSC06403,1.06e5,1.74e5,1.59e5,1.80e5,8580,inactive
SdhAL,DRSC10539,1.15e5,91240,72880,30095,9800,inactive
Nup205,DRSC19432,65835,85815,44925,23985,4420,inactive
Grip84,DRSC20248,1.76e5,1.70e5,1.68e5,1.05e5,13078,inactive

Results, from the start:
target,DRSC id,"induced reporter light, run 1, well a","induced reporter light, run 1, well b","control promoter light, run 1, well a","control promoter light, run 1, well b","uninduced reporter light, run 1, well a",activity call
CG13443,DRSC06403,1.06e5,1.74e5,1.59e5,1.80e5,8580,inactive
SdhAL,DRSC10539,1.15e5,91240,72880,30095,9800,inactive
Nup205,DRSC19432,65835,85815,44925,23985,4420,inactive
Grip84,DRSC20248,1.76e5,1.70e5,1.68e5,1.05e5,13078,inactive
Dlc90F,DRSC16649,1.57e5,1.62e5,2.02e5,2.04e5,14755,inactive
CG14282,DRSC14763,1.71e5,1.80e5,1.84e5,1.67e5,13410,inactive
CG1314,DRSC20495,1.21e5,1.32e5,1.22e5,58320,9035,inactive
CG3558,DRSC00615,1.64e5,1.69e5,1.49e5,1.68e5,14725,inactive
CG18094,DRSC02655,76580,33940,43300,49940,3045,inactive
Prat2,DRSC09692,86145,1.12e5,76155,33045,7710,inactive
smog,DRSC00334,1.38e5,1.27e5,1.13e5,84645,7070,active
smog,DRSC00335,8915,7165,8805,7410,3820,inactive
Hrb98DE,DRSC16709,1.26e5,1.36e5,1.89e5,2.17e5,10532,inactive
GstE7,DRSC06677,98525,1.06e5,1.84e5,2.54e5,10120,inactive
mei-41,DRSC20350,50205,45940,52175,53735,5210,inactive
CG15517,DRSC15056,99980,1.02e5,1.49e5,1.49e5,9620,inactive
Gpxl,DRSC06538,1.06e5,1.03e5,1.36e5,1.45e5,6875,inactive
Cpr47Ec,DRSC07332,1.03e5,1.35e5,1.52e5,1.29e5,11075,inactive
Ent1,DRSC00330,1.76e5,1.78e5,2.07e5,2.02e5,17705,inactive
CG14785,DRSC18604,1.75e5,1.63e5,2.42e5,2.07e5,12388,inactive
hng2,DRSC16412,1.15e5,1.40e5,1.38e5,1.08e5,8635,inactive
Surf6,DRSC15588,1.50e5,1.49e5,2.15e5,1.90e5,10920,inactive
CG15646,DRSC19682,58335,57925,82205,50655,9640,inactive
CG42360,DRSC04224,1.19e5,1.18e5,1.30e5,1.31e5,9320,inactive
CG12581,DRSC12206,1.06e5,1.17e5,66495,77455,7570,inactive
CG12581,DRSC12207,1.41e5,1.33e5,1.58e5,1.19e5,8155,inactive
CG14868,DRSC14991,1.70e5,1.94e5,2.67e5,3.02e5,13640,inactive
5-HT7,DRSC12635,1.77e5,2.16e5,2.44e5,2.38e5,11720,inactive
JMJD5,DRSC08372,1.95e5,1.64e5,2.09e5,2.38e5,7778,inactive
CG15695,DRSC15117,1.84e5,1.83e5,2.21e5,2.01e5,14925,inactive
CG7514,DRSC08597,1.58e5,1.65e5,1.38e5,2.10e5,8330,inactive
CG14718,DRSC14941,1.49e5,1.20e5,87785,77490,9175,inactive
RpL10Ab,DRSC10798,25830,22115,38930,32115,1270,inactive
CG10431,DRSC02055,1678,1378,2120,1905,130,inactive
NHP2,DRSC11229,1.44e5,1.48e5,2.77e5,2.23e5,10405,inactive
CG1701,DRSC06641,2.30e5,2.27e5,2.69e5,2.46e5,17235,inactive
CG31126,DRSC14623,2.09e5,1.57e5,2.44e5,2.36e5,16630,inactive
Vps25,DRSC06486,1.69e5,1.66e5,2.03e5,2.19e5,14690,inactive
E(spl)mbeta-HLH,DRSC16697,2.21e5,2.10e5,2.36e5,2.20e5,11780,inactive
CG18343,DRSC06726,99960,84555,1.39e5,1.81e5,12310,active
CBP,DRSC17746,2.08e5,2.06e5,2.23e5,2.25e5,15255,inactive
Ns3,DRSC18607,1.65e5,2.10e5,2.50e5,2.75e5,11860,inactive
CG1116,DRSC12166,52830,72765,49545,55170,5030,inactive
Set8,DRSC15473,1.16e5,1.12e5,91355,83320,11920,inactive
ATbp,DRSC20906,47505,66630,52185,58575,9555,inactive
Btk,DRSC02008,1.68e5,1.75e5,1.21e5,1.58e5,22460,inactive
Btk,DRSC02666,75140,74020,58820,67625,5275,inactive
CG18745,DRSC15382,68970,86845,59570,65645,5670,inactive
CG12826,DRSC06175,1.74e5,1.74e5,1.94e5,1.87e5,12850,inactive
Strn-Mlck,DRSC05032,1.26e5,1.15e5,2.68e5,2.67e5,9680,inactive
Strn-Mlck,DRSC05598,1.50e5,1.38e5,1.82e5,1.78e5,11260,inactive
Strn-Mlck,DRSC07471,1.88e5,1.15e5,1.46e5,1.54e5,10775,inactive
